The supplement of paper PMC11098740
The list shows a part of the results. Single values are uncertain, as repeats are few or missing.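 The assay uses a mixed pool of 41 HAP1 clones in which 61 cancer-associated proteins bear intron-inserted fluorescent tags, and clones are distinguished by image pattern. Results are compared against DMSO-treated control wells, and the BRD4 degrader dBET6 is the positive control.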

Chains of the proteins cited; added tags and fusions are not shown.
UniProt O14980, whole entry: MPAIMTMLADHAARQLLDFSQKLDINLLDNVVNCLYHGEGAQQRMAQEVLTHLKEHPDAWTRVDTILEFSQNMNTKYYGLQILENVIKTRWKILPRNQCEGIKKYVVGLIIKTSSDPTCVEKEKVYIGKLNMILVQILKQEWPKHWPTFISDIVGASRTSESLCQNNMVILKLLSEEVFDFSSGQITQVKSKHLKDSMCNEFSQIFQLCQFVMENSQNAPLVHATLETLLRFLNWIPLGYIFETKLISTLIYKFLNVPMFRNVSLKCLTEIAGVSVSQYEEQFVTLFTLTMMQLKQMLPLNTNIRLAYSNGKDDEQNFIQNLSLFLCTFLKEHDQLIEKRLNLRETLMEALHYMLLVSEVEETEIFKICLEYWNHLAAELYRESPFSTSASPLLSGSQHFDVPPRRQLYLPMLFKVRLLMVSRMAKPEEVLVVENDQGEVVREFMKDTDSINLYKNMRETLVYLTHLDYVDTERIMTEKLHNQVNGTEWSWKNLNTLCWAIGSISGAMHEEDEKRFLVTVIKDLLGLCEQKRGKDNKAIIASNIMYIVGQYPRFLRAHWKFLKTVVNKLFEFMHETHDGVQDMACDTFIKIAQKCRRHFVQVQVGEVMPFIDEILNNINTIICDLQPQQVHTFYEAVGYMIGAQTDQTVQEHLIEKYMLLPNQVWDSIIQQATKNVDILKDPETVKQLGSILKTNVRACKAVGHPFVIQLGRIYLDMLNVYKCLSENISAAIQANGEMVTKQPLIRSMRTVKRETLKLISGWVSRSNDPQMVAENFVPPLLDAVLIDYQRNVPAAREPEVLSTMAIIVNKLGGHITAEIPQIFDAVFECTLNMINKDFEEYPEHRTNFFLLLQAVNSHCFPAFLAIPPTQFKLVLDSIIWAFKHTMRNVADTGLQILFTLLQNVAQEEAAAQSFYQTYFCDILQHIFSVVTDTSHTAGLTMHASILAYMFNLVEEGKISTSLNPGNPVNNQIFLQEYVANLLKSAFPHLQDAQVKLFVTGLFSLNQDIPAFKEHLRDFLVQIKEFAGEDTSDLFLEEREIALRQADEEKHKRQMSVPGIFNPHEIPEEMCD

target: XPO1 (intron 15 mScarlet tag, HAP1) (UniProt O14980); experiment: XPO1 fluorescence intensity change vs DMSO (log2 fold change); higher = more XPO1 protein; details: 6 h

SMILES | XPO1 fluorescence intensity change (log2)
C[C@]12CC[C@H]3[C@@H](CC[C@@]45O[C@@H]4C(O)=C(C#N)C[C@]35C)[C@@H]1CC[C@@H]2O [Trilostane] (9.99988 µM) | -0.0195
CC[C@@H](CO)NC(=O)[C@@H]1C=C2c3cccc4[nH]cc(c34)C[C@H]2N(C)C1 [Methylergonovine] (13.4 µM) | 0.087
CN(C)C(=O)Oc1ccc[n+](C)c1 [Pyridostigmine  Bromide] (10 µM) | -0.161
N[C@@H](Cc1ccc(N(CCCl)CCCl)cc1)C(=O)O [Melphalan] (10 µM) | 0.112
COc1cc2c(cc1OC)C1CC(=O)C(CC(C)C)CN1CC2 (centres undefined) [Tetrabenazine] (10 µM) | -0.0051
CN[C@@H]1C[C@H]2O[C@@](C)([C@@H]1OC)n1c3ccccc3c3c4c(c5c6ccccc6n2c5c31)C(=O)NC4 [staurosporine] (10 µM) | -0.0842
CCNC(=O)C[C@@H]1N=C(c2ccc(Cl)cc2)c2cc(OC)ccc2-n2c(C)nnc21 (10 µM) | 0.0147
CCOc1ccc(-n2c(CCl)nc3ccccc3c2=O)cc1 (10 µM) | -0.0209
CCCC(C)(COC(N)=O)COC(=O)NC(C)C (centres undefined) [Carisoprodol] (10 µM) | 0.00397
CC(O)(CS(=O)(=O)c1ccc(F)cc1)C(=O)Nc1ccc(C#N)c(C(F)(F)F)c1 (centres undefined) [Bicalutamide] (20 µM) | 0.105
CCN(C(C)=O)c1cccc(-c2ccnc3c(C#N)cnn23)c1 [Zaleplon] (10.0001 µM) | 0.0701
COCC1(CO)C(=O)C2CCN1CC2 (centres undefined) [Prima-1 Met] (20 µM) | 0.109
COC[C@@H](NC(C)=O)C(=O)NCc1ccccc1 [Lacosamide] (10 µM) | 0.583
CCC1(c2ccc(N)cc2)CCC(=O)NC1=O (centres undefined) [Aminoglutethimide] (20 µM) | -0.0783
C[C@]12O[C@H](C[C@]1(O)CO)n1c3ccccc3c3c4c(c5c6ccccc6n2c5c31)CNC4=O [Lestaurtinib] (2 µM) | 0.0812
CC(C)[C@]12O[C@H]1[C@@H]1O[C@]13[C@]1(O[C@H]1C[C@H]1C4=C(CC[C@@]13C)C(=O)OC4)[C@@H]2O [Triptolide] (10 µM) | -0.165
COc1ccc2c(c1)[C@]13CCCC[C@@H]1[C@H](C2)N(C)CC3 [Dextromethorphan] (10 µM) | 0.211
CC(=O)c1c(C)cc(C)c(CNc2ccc(C#N)c(Cl)c2)c1C (10 µM) | 0.0844
C[C@]12CC[C@H]3[C@@H](CCC4=CC(=O)CC[C@@]43C)[C@@H]1CC[C@@H]2O [Testosterone] (10.00049246 µM) | 0.0417
C[C@]12Cc3c[nH]nc3C[C@@H]1CC[C@@H]1[C@@H]2CC[C@@]2(C)[C@H]1CC[C@]2(C)O [Stanozolol] (10 µM) | 0.0266
Cc1c(N)nc([C@H](CC(N)=O)NC[C@H](N)C(N)=O)nc1C(=O)N[C@H](C(=O)N[C@H](C)[C@@H](O)[C@H](C)C(=O)N[C@H](C(=O)NCCc1nc(-c2nc(C(=O)NCCC[S+](C)C)cs2)cs1)[C@@H](C)O)[C@@H](OC1OC(CO)C(O)C(O)C1OC1OC(CO)C(O)C(OC(N)=O)C1O)c1cnc[nH]1 (some centres undefined) [Bleomycin] (9.95632 µM) | -0.0762
CN1C[C@H](C(=O)N[C@]2(C)O[C@@]3(O)[C@@H]4CCCN4C(=O)[C@H](Cc4ccccc4)N3C2=O)C[C@@H]2c3cccc4[nH]cc(c34)C[C@H]21 [Dihydroergotamine] (9.9995338 µM) | 0.0354
CC(C)(O)C(=O)Nc1ccc([N+](=O)[O-])c(C(F)(F)F)c1 [Hydroxyflutamide] (10 µM) | 0.195
N[C@@H]1C[C@H]1c1ccccc1.N[C@H]1C[C@@H]1c1ccccc1 [Tranylcypromine] (10.0004 µM) | -0.083
C/C=C(/C)C(=O)O[C@H]1C(C)=C2[C@H]([C@@H]1OC(=O)CCCCCCC)[C@@](C)(OC(C)=O)C[C@H](OC(=O)CCC)[C@@]1(O)[C@H]2OC(=O)[C@@]1(C)O [thapsigargin] (10 µM) | 0.119
O=P1(N(CCCl)CCCl)NCCCO1 (centres undefined) [Cyclophosphamide] (10 µM) | -0.064
O=c1[nH]c2ccc(Cl)cc2c(N[C@@H]2CN3CCC2CC3)c1-c1nc2ccccc2[nH]1 (20 µM) | 0.108
N.N.[Cl][Pt][Cl] [Cisplatin] (20 µM) | 0.0535
C[C@]12C=CC(=O)C=C1CC[C@@H]1[C@@H]2CC[C@]2(C)OC(=O)CC[C@@H]12 [Testolactone] (10 µM) | -0.00446

3 entries from above, arranged by number of heavy atoms, rising.
SMILES | XPO1 fluorescence intensity change (log2)
CCN(C(C)=O)c1cccc(-c2ccnc3c(C#N)cnn23)c1 [Zaleplon] (10.0001 µM) | 0.0701
CCNC(=O)C[C@@H]1N=C(c2ccc(Cl)cc2)c2cc(OC)ccc2-n2c(C)nnc21 (10 µM) | 0.0147
CN1C[C@H](C(=O)N[C@]2(C)O[C@@]3(O)[C@@H]4CCCN4C(=O)[C@H](Cc4ccccc4)N3C2=O)C[C@@H]2c3cccc4[nH]cc(c34)C[C@H]21 [Dihydroergotamine] (9.9995338 µM) | 0.0354
